# In patent US20160090556A1, “PRODUCTS COMPRISING MALODOR REDUCTION MATERIALS” (The Procter & Gamble Company, priority 2014, published 2016):
# Legend:
# [1] = Melamine formaldehyde PMC Headspace Response Ratio; conditions: for Comment Code: Melamine formaldehyde PMC Headspace Response Ratio: code letter I
# [2] = Melamine formaldehyde PMC leakage; conditions: for Comment Code: Melamine formaldehyde PMC leakage: code letter J
# [3] = class code letter within Comment Code
Structure (SMILES),Comment Code: Melamine formaldehyde PMC Headspace Response Ratio [1],"Melamine formaldehyde PMC Headspace Response Ratio (Comment Code I) [1, 3]",also measured
CCC(C)(C)C1CCC(O)CC1 (stereo not shown) [Material 995],I (Melamine formaldehyde PMC Headspace Response Ratio greater than or equal to 10),,Comment Code: Melamine formaldehyde PMC leakage [2]: J (Melamine formaldehyde PMC leakage less than or equal to 5%)
CC1(O)CCOC2(CCCCC2)C1 (stereo not shown) [Material 16],,I (Melamine formaldehyde PMC Headspace Response Ratio greater than or equal to 10),"Melamine formaldehyde PMC leakage (Comment Code J) [2, 3]: J (Melamine formaldehyde PMC leakage less than or equal to 5%)"
C=C(C)C1CCC(C)C(O)C1 (stereo not shown) [Material 897],,,Melamine formaldehyde PMC Headspace Response Ratio (Comment Code I) [1]: I (Melamine formaldehyde PMC Headspace Response Ratio greater than or equal to 10); Melamine formaldehyde PMC leakage (Comment Code J) [2]: J (Melamine formaldehyde PMC leakage less than or equal to 5%)
C=CC1(C)CCC(C(C)(C)O)O1 (stereo not shown) [Material 155],,I (Melamine formaldehyde PMC Headspace Response Ratio greater than or equal to 10),"Melamine formaldehyde PMC leakage (Comment Code J) [2, 3]: J (Melamine formaldehyde PMC leakage less than or equal to 5%)"
C=C1CC2CCC1C2(C)C (stereo not shown) [Material 711],,,Melamine formaldehyde PMC Headspace Response Ratio (Comment Code I) [1]: I (Melamine formaldehyde PMC Headspace Response Ratio greater than or equal to 10); Melamine formaldehyde PMC leakage (Comment Code J) [2]: J (Melamine formaldehyde PMC leakage less than or equal to 5%)
C=C(C)C1CC=C(C)C(O)C1 (stereo not shown) [Material 170],,I (Melamine formaldehyde PMC Headspace Response Ratio greater than or equal to 10),"Melamine formaldehyde PMC leakage (Comment Code J) [2, 3]: J (Melamine formaldehyde PMC leakage less than or equal to 5%)"
CCC(=O)OC1CC2CCC1(C)C2(C)C (stereo not shown) [Material 228],,I (Melamine formaldehyde PMC Headspace Response Ratio greater than or equal to 10),"Melamine formaldehyde PMC leakage (Comment Code J) [2, 3]: J (Melamine formaldehyde PMC leakage less than or equal to 5%)"
CCC(C)(O)CCC=C(C)C (stereo not shown) [Material 877],,,Melamine formaldehyde PMC Headspace Response Ratio (Comment Code I) [1]: I (Melamine formaldehyde PMC Headspace Response Ratio greater than or equal to 10); Melamine formaldehyde PMC leakage (Comment Code J) [2]: J (Melamine formaldehyde PMC leakage less than or equal to 5%)
CC(C)C12CCC(C)(CC1)O2 [Material 875],I (Melamine formaldehyde PMC Headspace Response Ratio greater than or equal to 10),,Comment Code: Melamine formaldehyde PMC leakage [2]: J (Melamine formaldehyde PMC leakage less than or equal to 5%)
C=C(C)CC(C)OC(=O)C(C)C (stereo not shown) [Material 201],I (Melamine formaldehyde PMC Headspace Response Ratio greater than or equal to 10),,Comment Code: Melamine formaldehyde PMC leakage [2]: J (Melamine formaldehyde PMC leakage less than or equal to 5%)
CCCCC1C=C(C)CC(C)O1 (stereo not shown) [Material 290],,I (Melamine formaldehyde PMC Headspace Response Ratio greater than or equal to 10),"Melamine formaldehyde PMC leakage (Comment Code J) [2, 3]: J (Melamine formaldehyde PMC leakage less than or equal to 5%)"
COC(=O)C1C(C)=CCCC1(C)C (stereo not shown) [Material 123],,I (Melamine formaldehyde PMC Headspace Response Ratio greater than or equal to 10),"Melamine formaldehyde PMC leakage (Comment Code J) [2, 3]: J (Melamine formaldehyde PMC leakage less than or equal to 5%)"
CC1(C)C2CC=C(CC=O)C1C2 (stereo not shown) [Material 973],,,Melamine formaldehyde PMC Headspace Response Ratio (Comment Code I) [1]: I (Melamine formaldehyde PMC Headspace Response Ratio greater than or equal to 10); Melamine formaldehyde PMC leakage (Comment Code J) [2]: J (Melamine formaldehyde PMC leakage less than or equal to 5%)
COC(=O)C1(C)CCC(C)CC1 (stereo not shown) [Material 477],I (Melamine formaldehyde PMC Headspace Response Ratio greater than or equal to 10),,Comment Code: Melamine formaldehyde PMC leakage [2]: J (Melamine formaldehyde PMC leakage less than or equal to 5%)
CCCCCCC1CCC(=O)O1 (stereo not shown) [Material 332],,I (Melamine formaldehyde PMC Headspace Response Ratio greater than or equal to 10),"Melamine formaldehyde PMC leakage (Comment Code J) [2, 3]: J (Melamine formaldehyde PMC leakage less than or equal to 5%)"
C=C(C)C1CC=C(C)C(=O)C1 (stereo not shown) [Material 902],I (Melamine formaldehyde PMC Headspace Response Ratio greater than or equal to 10),,Comment Code: Melamine formaldehyde PMC leakage [2]: J (Melamine formaldehyde PMC leakage less than or equal to 5%)
COC(OC)C(C)(C)CC=C(C)C [Material 93],,I (Melamine formaldehyde PMC Headspace Response Ratio greater than or equal to 10),"Melamine formaldehyde PMC leakage (Comment Code J) [2, 3]: J (Melamine formaldehyde PMC leakage less than or equal to 5%)"
C=C(C)C1CC=C(C)C(=O)C1 (stereo not shown) [Material 576],I (Melamine formaldehyde PMC Headspace Response Ratio greater than or equal to 10),,Comment Code: Melamine formaldehyde PMC leakage [2]: J (Melamine formaldehyde PMC leakage less than or equal to 5%)
CC1=CCC(CC#N)C1(C)C (stereo not shown) [Material 585],I (Melamine formaldehyde PMC Headspace Response Ratio greater than or equal to 10),,Comment Code: Melamine formaldehyde PMC leakage [2]: J (Melamine formaldehyde PMC leakage less than or equal to 5%)
CC(C)CC=C(C=O)C(C)C [Material 847],I (Melamine formaldehyde PMC Headspace Response Ratio greater than or equal to 10),,Comment Code: Melamine formaldehyde PMC leakage [2]: J (Melamine formaldehyde PMC leakage less than or equal to 5%)
CCCCCC1=C(C)CCC1=O [Material 438],I (Melamine formaldehyde PMC Headspace Response Ratio greater than or equal to 10),,Comment Code: Melamine formaldehyde PMC leakage [2]: J (Melamine formaldehyde PMC leakage less than or equal to 5%)
C/C=C/CCC1CCCC(=O)O1 (stereo not shown) [Material 187],,I (Melamine formaldehyde PMC Headspace Response Ratio greater than or equal to 10),
CC(=O)CCc1ccccc1 [Material 640],I (Melamine formaldehyde PMC Headspace Response Ratio greater than or equal to 10),,
Cc1ccc2ncccc2c1 [Material 777],I (Melamine formaldehyde PMC Headspace Response Ratio greater than or equal to 10),,
C=CC(C)=CCC=C(C)C [Material 524],,I (Melamine formaldehyde PMC Headspace Response Ratio greater than or equal to 10),

Structure (SMILES),Comment Code: Melamine formaldehyde PMC Headspace Response Ratio [1],"Melamine formaldehyde PMC Headspace Response Ratio (Comment Code I) [1, 3]",also measured
O=Cc1ccc2c(c1)OCO2 [Material 287],I (Melamine formaldehyde PMC Headspace Response Ratio greater than or equal to 10),,
CC(O)CCc1ccccc1 (stereo not shown) [Material 98],,I (Melamine formaldehyde PMC Headspace Response Ratio greater than or equal to 10),
CC(C)=CCC/C(C)=C\CO [Material 64],,I (Melamine formaldehyde PMC Headspace Response Ratio greater than or equal to 10),
CC(C)=CCC/C(C)=C/CO [Material 1082],,,Melamine formaldehyde PMC Headspace Response Ratio (Comment Code I) [1]: I (Melamine formaldehyde PMC Headspace Response Ratio greater than or equal to 10)
CC(=O)c1oc2ccccc2c1C [Material 61],,I (Melamine formaldehyde PMC Headspace Response Ratio greater than or equal to 10),
CC(C=O)=Cc1ccccc1 [Material 701],I (Melamine formaldehyde PMC Headspace Response Ratio greater than or equal to 10),,
COc1ccc(C=O)c(OC)c1OC [Material 733],,,Melamine formaldehyde PMC Headspace Response Ratio (Comment Code I) [1]: I (Melamine formaldehyde PMC Headspace Response Ratio greater than or equal to 10)
CCC(C)c1nccnc1OC (stereo not shown) [Material 845],I (Melamine formaldehyde PMC Headspace Response Ratio greater than or equal to 10),,
CCCCCC1CCCC1=O (stereo not shown) [Material 469],I (Melamine formaldehyde PMC Headspace Response Ratio greater than or equal to 10),,
C=CC(C)=CC=CC(=C)C [Material 495],I (Melamine formaldehyde PMC Headspace Response Ratio greater than or equal to 10),,
C=CCc1ccc(O)c(OC)c1 [Material 375],,I (Melamine formaldehyde PMC Headspace Response Ratio greater than or equal to 10),
OCCCc1ccccc1 [Material 254],,I (Melamine formaldehyde PMC Headspace Response Ratio greater than or equal to 10),
COC(=O)Cc1ccccc1 [Material 97],I (Melamine formaldehyde PMC Headspace Response Ratio greater than or equal to 10),,
O=C(O)CCc1ccccc1 [Material 255],I (Melamine formaldehyde PMC Headspace Response Ratio greater than or equal to 10),,
CC1OCC(c2ccccc2)O1 (stereo not shown) [Material 190],,I (Melamine formaldehyde PMC Headspace Response Ratio greater than or equal to 10),
CCCOC(C)OCCC [Material 767],,,Melamine formaldehyde PMC Headspace Response Ratio (Comment Code I) [1]: I (Melamine formaldehyde PMC Headspace Response Ratio greater than or equal to 10)
CC(=O)OC(C)c1ccccc1 (stereo not shown) [Material 1041],I (Melamine formaldehyde PMC Headspace Response Ratio greater than or equal to 10),,
OC1CCC2CCCCC2C1 (stereo not shown) [Material 474],,I (Melamine formaldehyde PMC Headspace Response Ratio greater than or equal to 10),
CCCCSCCCC [Material 453],,I (Melamine formaldehyde PMC Headspace Response Ratio greater than or equal to 10),
CCCCCCCC(C)O (stereo not shown) [Material 839],,,Melamine formaldehyde PMC Headspace Response Ratio (Comment Code I) [1]: I (Melamine formaldehyde PMC Headspace Response Ratio greater than or equal to 10)
C=C(OC(C)=O)c1ccccc1 [Material 931],I (Melamine formaldehyde PMC Headspace Response Ratio greater than or equal to 10),,
Cc1ccnc2ccccc12 [Material 166],I (Melamine formaldehyde PMC Headspace Response Ratio greater than or equal to 10),,
CC1CCC2(CCCC(=O)O2)C1 (stereo not shown) [Material 107],I (Melamine formaldehyde PMC Headspace Response Ratio greater than or equal to 10),,
CC(C)CCCCCCO [Material 205],I (Melamine formaldehyde PMC Headspace Response Ratio greater than or equal to 10),,

# Like-named read-outs stand apart in the source and are kept apart here. Some entries repeat one wording, which the source may state once for all of them.
